# Data published in publication PMC10425210 (The Journal of Clinical Investigation, 2023).
# “And” between values parts separate entries of the source, which are not always exact repeats. Identical values can stand only once. Like-named read-outs stand apart in the source and are kept apart here. This continues a long series; more values of the same kind are listed elsewhere.
# What was measured:
# SHIV-SF162P3 = format: in vivo, rhesus macaques
# [1] = Plasma pharmacokinetics after a single subcutaneous administration of LEN; format: in vivo, rhesus macaques
# Experimental: All animals were housed at Bioqual Inc. For the in vivo SHIV stock titration study, 8 untreated outbred Indian-origin male rhesus macaques aged 3–5 years were challenged intrarectally per round for a total of 5 challenge rounds using increasing virus doses ranging from 0.625 to 100 TCID50, with the 100 TCID50 round performed twice for increased resolution (Supplemental Table 2). Plasma viral load was measured to confirm the infection status. […] Injection sites were monitored daily by veterinary staff for 2 weeks and then weekly through the end of study. On week 7, 11 animals were challenged by the intrarectal route with 1 mL RPMI containing 100 TCID50 SHIV-SF162P3. Whole blood was collected and processed into plasma and PBMCs as necessary for the assessment of routine hematology and clinical chemistry, viral load analysis, serology, and the bioanalysis of drug levels. Animals were considered protected if they remained SHIV negative by a plasma PCR assay and seronegative by enzyme immunoassay through week 10 after challenge.
# Rhesus plasma samples were stored frozen at –80°C and thawed, and a 50 μL aliquot of each was treated with 200 μL acetonitrile containing an internal standard. After precipitation of the protein component, a 100 μL aliquot of the supernatant was transferred to a clean 96-well plate and mixed with 200 μL water. A 10 μL aliquot of the above solution was then injected into a Q-Exactive high resolution mass spectrometer from Thermo Electron with electrospray ionization in positive mode.
# [2] = animal V426, 75 mg/kg, week 12 post challenge
# [3] = animal V426, 75 mg/kg, week 13 post challenge
# [4] = animal V426, 75 mg/kg, week 14 post challenge
# [5] = animal V426, 75 mg/kg, week 15 post challenge
# [6] = animal V426, 75 mg/kg, week 16 post challenge
# [7] = animal V426, 75 mg/kg, week 17 post challenge
# [8] = animal V426, 75 mg/kg, week 18 post challenge
smiles,measurement,setting,value
"CC(C)(C#Cc1ccc(-c2ccc(Cl)c3c(NS(C)(=O)=O)nn(CC(F)(F)F)c23)c([C@H](Cc2cc(F)cc(F)c2)NC(=O)Cn2nc(C(F)(F)F)c3c2C(F)(F)[C@@H]2C[C@H]32)n1)S(C)(=O)=O [LEN, Lenacapavir]",Plasma SHIV RNA,SHIV-SF162P3; [2],62 copies per mL
same,Plasma SHIV RNA,SHIV-SF162P3; [3],62 copies per mL
same,Plasma SHIV RNA,SHIV-SF162P3; [4],62 copies per mL
same,Plasma SHIV RNA,SHIV-SF162P3; [5],62 copies per mL
same,Plasma SHIV RNA,SHIV-SF162P3; [6],62 copies per mL
same,Plasma SHIV RNA,SHIV-SF162P3; [7],62 copies per mL
same,Plasma SHIV RNA,SHIV-SF162P3; [8],62 copies per mL
same,Plasma SHIV RNA,"SHIV-SF162P3; animal V435, 75 mg/kg, week 3 post challenge",35193943 copies per mL
same,Plasma SHIV RNA,"SHIV-SF162P3; animal V435, 75 mg/kg, week 4 post challenge",3228706 copies per mL
same,Plasma SHIV RNA,"SHIV-SF162P3; animal V435, 75 mg/kg, week 5 post challenge",807911 copies per mL
same,Plasma LEN,"[1]; animal BM55, 20 mg/kg, week 1 post challenge",32.00 nM
same,Plasma LEN,"[1]; animal BM55, 20 mg/kg, week 2 post challenge",36.71 nM
same,Plasma LEN,"[1]; animal BM55, 20 mg/kg, week 3 post challenge",38.02 nM
same,Plasma LEN,"[1]; animal BM55, 20 mg/kg, week 4 post challenge",20.83 nM
same,Plasma LEN,"[1]; animal BM55, 20 mg/kg, week 5 post challenge",13.56 nM
same,Plasma LEN,"[1]; animal BN33, 20 mg/kg, week 1 post challenge",17.80 nM
same,Plasma LEN,"[1]; animal BN33, 20 mg/kg, week 2 post challenge",16.99 nM
same,Plasma LEN,"[1]; animal BN33, 20 mg/kg, week 3 post challenge",14.34 nM
same,Plasma LEN,"[1]; animal BN33, 20 mg/kg, week 4 post challenge",16.20 nM
same,Plasma LEN,"[1]; animal BN33, 20 mg/kg, week 5 post challenge",6.68 nM
same,Plasma LEN,"[1]; animal CP67, 75 mg/kg, week 12 post challenge",16.89 nM
same,Plasma LEN,"[1]; animal CP67, 75 mg/kg, week 13 post challenge",11.36 nM
same,Plasma LEN,"[1]; animal CP67, 75 mg/kg, week 14 post challenge",7.72 nM
same,Plasma LEN,"[1]; animal CP67, 75 mg/kg, week 15 post challenge",5.88 nM
same,Plasma LEN,"[1]; animal CP67, 75 mg/kg, week 16 post challenge",6.11 nM
same,Plasma LEN,"[1]; animal CP67, 75 mg/kg, week 17 post challenge",4.23 nM
same,Plasma LEN,"[1]; animal CP67, 75 mg/kg, week 18 post challenge",3.84 nM
same,Plasma LEN,"[1]; animal V229, 20 mg/kg, week 1 post challenge",41.40 nM
same,Plasma LEN,"[1]; animal V229, 20 mg/kg, week 2 post challenge",43.50 nM
same,Plasma LEN,"[1]; animal V229, 20 mg/kg, week 3 post challenge",43.98 nM
same,Plasma LEN,"[1]; animal V229, 20 mg/kg, week 4 post challenge",15.25 nM
same,Plasma LEN,"[1]; animal V229, 20 mg/kg, week 5 post challenge",12.07 nM
same,Plasma LEN,"[1]; animal V417, 75 mg/kg, week 11 post challenge",22.75 nM
same,Plasma LEN,"[1]; animal V417, 75 mg/kg, week 12 post challenge",18.52 nM
same,Plasma LEN,"[1]; animal V417, 75 mg/kg, week 13 post challenge",19.75 nM
same,Plasma LEN,"[1]; animal V417, 75 mg/kg, week 14 post challenge",16.93 nM
same,Plasma LEN,"[1]; animal V417, 75 mg/kg, week 15 post challenge",10.77 nM
same,Plasma LEN,"[1]; animal V417, 75 mg/kg, week 16 post challenge",14.85 nM
same,Plasma LEN,"[1]; animal V417, 75 mg/kg, week 17 post challenge",15.00 nM
same,Plasma LEN,"[1]; animal V417, 75 mg/kg, week 18 post challenge",13.17 nM
same,Plasma LEN,[1]; [2],28.65 nM
same,Plasma LEN,[1]; [3],34.52 nM
same,Plasma LEN,[1]; [4],23.63 nM
same,Plasma LEN,[1]; [5],19.83 nM
same,Plasma LEN,[1]; [6],19.46 nM
same,Plasma LEN,[1]; [7],26.86 nM
same,Plasma LEN,[1]; [8],28.44 nM
same,Plasma LEN,"[1]; animal V435, 75 mg/kg, week 11 post challenge",1.77 nM
same,Plasma LEN,"[1]; animal V435, 75 mg/kg, week 12 post challenge",1.00 nM
same,Plasma LEN,"[1]; animal V435, 75 mg/kg, week 13 post challenge",1.00 nM
same,Plasma LEN,"[1]; animal V435, 75 mg/kg, week 14 post challenge",1.00 nM
same,Plasma LEN,"[1]; animal V435, 75 mg/kg, week 15 post challenge",1.00 nM
same,Plasma LEN,"[1]; animal V435, 75 mg/kg, week 16 post challenge",1.00 nM
same,Plasma LEN,"[1]; animal V435, 75 mg/kg, week 17 post challenge",1.00 nM
same,Plasma LEN,"[1]; animal V435, 75 mg/kg, week 18 post challenge",1.00 nM
same,Plasma LEN,"[1]; animal V435, 75 mg/kg, week 19 post challenge",1.00 nM
same,Plasma LEN,"[1]; animal V435, 75 mg/kg, week 20 post challenge",1.00 nM
same,Plasma LEN at the time of challenge,[1]; individual Infected animals,37.30 nM and 38.60 nM and 28.17 nM
same,Plasma LEN at the time of challenge,[1]; individual Non-infected animals,158.01 nM and 177.50 nM and 18.60 nM and 50.08 nM and 100.49 nM and 117.17 nM and 143.42 nM and 153.65 nM
